PubChem BioAssay AID602196 – INSERM – 2012

Aim: 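Modifiers of cisplatin sensitivity in A549 cells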
Cell system: human A549 lung cancer cells
Reagents: siRNA pair against human genes
Duration: 48 h transfection before cisplatin; time from cisplatin to read-out not stated
Treatment: cisplatin at a dose killing half of control-siRNA cells; exact dose and duration not given
Measurement: 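Shift in cisplatin death relative to control siRNA, from -50 (all cells die) to +50 (no cells die); siRNAs harmful on their own scored 0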
Reading the numbers: two-siRNA summed score (-2 to +2): higher = both siRNAs protect from cisplatin killing; -2 means both sensitise; mean protection from cisplatin (shift in death): higher = protection from cisplatin killing
Rule for the call: 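siRNAs harmful alone (LDH or WST-1) get 0; others get +1 for less and -1 for more cisplatin killing; genes are active when the two siRNAs give the same sign, summing to ±2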
Meaning of the calls: active = both siRNAs shift cisplatin killing the same way; inactive = no consistent shift, or siRNA harmful alone
Here is a random part of about 23,000 reagents tested. 455 of them (2%) were called active. 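Active includes both protection and sensitisation; some change values fall well beyond the stated -50 to +50 range.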 Not all columns of the deposit are shown. Not given: the amount of reagent.

For RANBP9 the deposit lists two-siRNA summed score (-2 to +2) = 0; mean protection from cisplatin (shift in death) (%) = 6.2; inactive. Against TAS2R45 the deposit lists two-siRNA summed score (-2 to +2) = 0; mean protection from cisplatin (shift in death) (%) = -8.6; inactive. Silencing of LOC389300 (retired record) resulted in: two-siRNA summed score (-2 to +2) = 0; mean protection from cisplatin (shift in death) (%) = 0.5; inactive. SLC5A8 gave two-siRNA summed score (-2 to +2) = 0; mean protection from cisplatin (shift in death) (%) = 1.4; inactive. Against PDE6D, the entry reads two-siRNA summed score (-2 to +2) = 1; mean protection from cisplatin (shift in death) (%) = 11.5; inactive. Knock-down of GCNT4 resulted in: two-siRNA summed score (-2 to +2) = 0; mean protection from cisplatin (shift in death) (%) = -3.1; inactive.

LOC283129 gave two-siRNA summed score (-2 to +2) = -1; mean protection from cisplatin (shift in death) (%) = -7.3; inactive. Against PCDH15 the deposit lists two-siRNA summed score (-2 to +2) = 0; mean protection from cisplatin (shift in death) (%) = 1.2; inactive. With knock-down of COL8A2, the screen gave two-siRNA summed score (-2 to +2) = 0; mean protection from cisplatin (shift in death) (%) = 5.1; inactive. Depletion of UBR5 came out at: two-siRNA summed score (-2 to +2) = 0; mean protection from cisplatin (shift in death) (%) = -34.2; inactive. Depletion of AQP7 gave: two-siRNA summed score (-2 to +2) = 0; mean protection from cisplatin (shift in death) (%) = 5.8; inactive. Knock-down of LOC197317 gave: two-siRNA summed score (-2 to +2) = 0; mean protection from cisplatin (shift in death) (%) = 15.2; inactive.

MPHOSPH9 showed two-siRNA summed score (-2 to +2) = 0; mean protection from cisplatin (shift in death) (%) = -0.2; inactive. For STX3, the entry reads two-siRNA summed score (-2 to +2) = 0; mean protection from cisplatin (shift in death) (%) = 6.9; inactive. Silencing of XPO7 resulted in: two-siRNA summed score (-2 to +2) = 0; mean protection from cisplatin (shift in death) (%) = -13.2; inactive. Silencing of LOC440153 gave: two-siRNA summed score (-2 to +2) = -1; mean protection from cisplatin (shift in death) (%) = -2.1; inactive.

Taken from above:
Entry of XPO7 in “mean protection from cisplatin (shift in death) (%)”: -13.2
PDE6D, two-siRNA summed score (-2 to +2) → 1
Value of STX3 in “two-siRNA summed score (-2 to +2)”: 0
For “two-siRNA summed score (-2 to +2)”, LOC389300 (retired record) has 0
For “two-siRNA summed score (-2 to +2)”, LOC440153 reads -1

The listing continues:
After knock-down of SMG1P2, the screen gave two-siRNA summed score (-2 to +2) = 0; mean protection from cisplatin (shift in death) (%) = 13.5; inactive. Silencing of BCL7B gave: two-siRNA summed score (-2 to +2) = 0; mean protection from cisplatin (shift in death) (%) = 7; inactive. GRHL2 gave two-siRNA summed score (-2 to +2) = 0; mean protection from cisplatin (shift in death) (%) = 10.1; inactive. PIGS showed two-siRNA summed score (-2 to +2) = 0; mean protection from cisplatin (shift in death) (%) = -0.6; inactive. Against USHBP1, the values are two-siRNA summed score (-2 to +2) = 0; mean protection from cisplatin (shift in death) (%) = 2.4; inactive. Silencing of KCNJ1 gave: two-siRNA summed score (-2 to +2) = 0; mean protection from cisplatin (shift in death) (%) = -6.5; inactive.

Silencing of POT1 came out at: two-siRNA summed score (-2 to +2) = 0; mean protection from cisplatin (shift in death) (%) = 5.2; inactive. With knock-down of FAM135B, the screen gave two-siRNA summed score (-2 to +2) = 1; mean protection from cisplatin (shift in death) (%) = 6.2; inactive. After knock-down of UGT1A7, the screen gave two-siRNA summed score (-2 to +2) = 0; mean protection from cisplatin (shift in death) (%) = 11.5; inactive. For LOC205251, the values are two-siRNA summed score (-2 to +2) = 1; mean protection from cisplatin (shift in death) (%) = 10.5; inactive. After knock-down of TCTA the results were two-siRNA summed score (-2 to +2) = 0; mean protection from cisplatin (shift in death) (%) = 5.4; inactive. PPP2R2C scored two-siRNA summed score (-2 to +2) = 0; mean protection from cisplatin (shift in death) (%) = 9; inactive.

Against TINF2, the entry reads two-siRNA summed score (-2 to +2) = 0; mean protection from cisplatin (shift in death) (%) = 3.7; inactive. Knock-down of ARSF gave: two-siRNA summed score (-2 to +2) = 0; mean protection from cisplatin (shift in death) (%) = -1; inactive. For IPO13, the values are two-siRNA summed score (-2 to +2) = 1; mean protection from cisplatin (shift in death) (%) = 1.4; inactive.
